Reference: PMC3566007
Results are given in words; binding and its absence hold for the method and conditions named. In cells and extracts the contact can be indirect. A result given as binding can be weak or reduced; the word gives no strength.

Chains of the proteins cited; added tags and fusions are not shown. Lines headed by an entry give the natural chain unless they say otherwise; changes in a name come on top.
UniProt O88634: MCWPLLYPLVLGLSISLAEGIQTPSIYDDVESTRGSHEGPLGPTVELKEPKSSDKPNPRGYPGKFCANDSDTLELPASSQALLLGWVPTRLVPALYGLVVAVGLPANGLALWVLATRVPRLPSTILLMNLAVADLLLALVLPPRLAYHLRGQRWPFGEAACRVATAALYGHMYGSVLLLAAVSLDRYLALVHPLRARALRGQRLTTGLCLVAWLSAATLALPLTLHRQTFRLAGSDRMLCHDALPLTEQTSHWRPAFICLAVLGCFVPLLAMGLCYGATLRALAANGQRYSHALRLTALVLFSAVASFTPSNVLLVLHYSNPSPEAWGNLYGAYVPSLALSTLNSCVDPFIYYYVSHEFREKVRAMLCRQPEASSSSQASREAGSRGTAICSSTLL
UniProt O08675: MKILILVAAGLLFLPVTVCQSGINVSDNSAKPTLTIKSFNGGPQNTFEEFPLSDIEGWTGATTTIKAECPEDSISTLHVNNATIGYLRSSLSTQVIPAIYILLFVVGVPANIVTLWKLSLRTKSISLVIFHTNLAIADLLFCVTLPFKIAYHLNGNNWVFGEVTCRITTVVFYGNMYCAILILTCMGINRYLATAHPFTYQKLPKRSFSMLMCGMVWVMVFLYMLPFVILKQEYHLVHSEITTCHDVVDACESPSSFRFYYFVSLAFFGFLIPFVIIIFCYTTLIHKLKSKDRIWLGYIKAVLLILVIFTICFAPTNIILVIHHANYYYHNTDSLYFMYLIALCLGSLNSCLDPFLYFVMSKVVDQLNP

Target: mouse protease activated receptor 4 (PAR4) (mouse) (UniProt O88634)
Assay: FRET or BRET; BRET in HEK293 cells, 48 h after transfection; Luc-tagged donor constant (1 µg DNA), GFP-tagged acceptor increased (0–2.5 µg; rho-GFP 0–0.12 µg); BRET plotted against the GFP to Luc ratio, global fit to a hyperbolic or linear curve, 3–6 independent experiments

Substance: mouse protease activated receptor 3 (PAR3) (from UniProt O08675)
- binding: binds
